PubChem BioAssay AID1259267 | Sanger Institute | 2017

Purpose: 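Kinase and colorectal-mutated gene knock-downs lethal to GP5D cells alone or with drugs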 (primary screen)
Cells: human GP5D colorectal cancer cells
Knock-down reagent: siRNA pool against human genes
Treatment: anchor drugs at low dose: BYL719 1 µM, cetuximab 5 µg/ml, trametinib 10 nM, or DMSO vehicle
Detection: 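Mean replicate viability versus non-targeting pool, given as knock-down-alone robust z-score, DMSO fraction, and synergy with low-dose BYL719, cetuximab or trametinib (1 µM, 5 µg/ml, 10 nM)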
Scale: robust z-score, knock-down alone and viability with DMSO: higher = more viable cells; synergy score with trametinib and synergy score with BYL719 and synergy score with cetuximab: higher = stronger synthetic lethal synergy with drug
Hit rule: 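Active (essential alone) if knock-down without drug gives robust z-score under -3; drug synergy does not count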
Meaning of the calls: active = essential alone; inactive = not essential
The deposit covers 794 reagents; below is an unselected part. 9 of them (1.1%) were called active. 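Viability capped at 1; calls reflect loss of viability from knock-down alone, not synergy with drugs.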 A number with no mark means an inactive call. The record does not give: the amount of reagent, the time to read-out.

"robust z-score, knock-down alone",viability with DMSO (fraction of control),synergy score with trametinib,synergy score with BYL719,synergy score with cetuximab,target gene
0.817,1,0.0184,-0.0446,-0.00325,BCKDK
-1.52,0.506,0.179,-0.121,0.0762,EPHA6
0.675,0.97,0.212,-0.0328,0.084,SBK1
0.0889,0.846,0.181,-0.108,-0.0742,CDK4
-2.39,0.32,0.0605,-0.205,0.0422,PKLR
0.439,0.92,-0.0188,-0.0516,-0.0747,GRK7
0.817,1,0.0877,0.0679,-0.0178,STK17B
-1.24,0.564,0.151,0.00209,0.0661,CDKN2C
0.817,1,-0.197,-0.284,-0.138,TRIB1
0.631,0.961,0.236,0.0627,0.1,RPS6KA1
-1.08,0.597,-0.0611,-0.221,-0.212,PLK3
0.0848,0.845,-0.0698,-0.234,-0.0856,TAOK2
0.521,0.937,-0.0723,0.01,-0.00711,DMPK
0.817,1,-0.197,-0.253,-0.0504,EIF2AK4
-1.83,0.439,-0.238,-0.402,-0.271,POLR2B
0.317,0.894,0.172,-0.325,-0.137,TRIM27
0.817,1,-0.0476,-0.361,-0.142,PANK1
-1.02,0.61,0.00114,0.0499,0.0756,STK35
-1.24,0.563,-0.295,-0.327,-0.304,STK16
0.0342,0.834,0.0682,-0.0592,-0.14,GRK4

Not a retest: an excerpt of the list.
"robust z-score, knock-down alone",viability with DMSO (fraction of control),synergy score with trametinib,synergy score with BYL719,synergy score with cetuximab,target gene
0.317,0.894,0.172,-0.325,-0.137,TRIM27
0.817,1,-0.0476,-0.361,-0.142,PANK1
-1.02,0.61,0.00114,0.0499,0.0756,STK35
